The values below come from article PMC9095880, “AIMP2-DX2 provides therapeutic interface to control KRAS-driven tumorigenesis” (Nature Communications, 2022).

This assay concerns the target T1, Strep-DX2 (Strep-tagged AIMP2-DX2) (human) (UniProt Q13155).
T1 sequence: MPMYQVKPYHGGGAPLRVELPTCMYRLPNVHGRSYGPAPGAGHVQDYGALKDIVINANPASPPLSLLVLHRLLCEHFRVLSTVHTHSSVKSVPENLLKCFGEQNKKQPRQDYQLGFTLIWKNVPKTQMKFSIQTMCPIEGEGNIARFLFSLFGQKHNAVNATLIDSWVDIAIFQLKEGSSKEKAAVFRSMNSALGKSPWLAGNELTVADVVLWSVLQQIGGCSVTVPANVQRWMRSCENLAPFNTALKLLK
As to the kind of experiment: affinity purification with mass spectrometry; H460 cells expressing Strep-DX2 or Strep-EV, EGF 30 min; 5 mg lysate on a strep-tactin column; in-gel digestion, LC-MS/MS (n = 1).

Results are given in words; binding and its absence hold for the method and conditions named. In cells and extracts the contact can be indirect. Here binding means that the protein was enriched with, or labelled near, the bait; the list need not be complete. Sequences can lack the tags named with a protein.

B1: peroxiredoxin 1 (PRDX1) (protein, UniProt Q06830 1-199)
chain: MSSGNAKIGHPAPNFKATAVMPDGQFKDISLSDYKGKYVVFFFYPLDFTFVCPTEIIAFSDRAEEFKKLNCQVIGASVDSHFCHLAWVNTPKKQGGLGPMNIPLVSDPKRTIAQDYGVLKADEGISFRGLFIIDDKGILRQITVNDLPVGRSVDETLRLVQAFQFTDKHGEVCPAGWKPGSDTIKPDVQKSKEYFSKQK
Consider B1, for which the binding result was “binds”.
